Reference: the supplement of paper PMC10849652
Some of the results follow.

Amino acid sequences for entries named in this document (tags omitted). A change or cut given only in a name is not applied to a line headed by its entry.
UniProt O43772: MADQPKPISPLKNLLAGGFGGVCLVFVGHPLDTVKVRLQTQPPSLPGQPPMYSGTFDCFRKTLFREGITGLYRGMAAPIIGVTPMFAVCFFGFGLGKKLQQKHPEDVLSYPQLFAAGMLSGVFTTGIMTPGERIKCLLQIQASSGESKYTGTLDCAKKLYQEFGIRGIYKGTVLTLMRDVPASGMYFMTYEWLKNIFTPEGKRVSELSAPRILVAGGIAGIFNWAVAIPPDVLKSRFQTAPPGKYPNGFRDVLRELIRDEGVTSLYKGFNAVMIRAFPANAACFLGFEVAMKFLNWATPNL
UniProt O15431: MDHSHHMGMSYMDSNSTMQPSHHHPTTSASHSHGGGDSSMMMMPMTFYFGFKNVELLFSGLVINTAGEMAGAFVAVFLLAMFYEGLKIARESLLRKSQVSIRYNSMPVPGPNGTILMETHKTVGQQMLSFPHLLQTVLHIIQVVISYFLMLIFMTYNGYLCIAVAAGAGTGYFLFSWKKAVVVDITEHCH
UniProt Q8TAD4: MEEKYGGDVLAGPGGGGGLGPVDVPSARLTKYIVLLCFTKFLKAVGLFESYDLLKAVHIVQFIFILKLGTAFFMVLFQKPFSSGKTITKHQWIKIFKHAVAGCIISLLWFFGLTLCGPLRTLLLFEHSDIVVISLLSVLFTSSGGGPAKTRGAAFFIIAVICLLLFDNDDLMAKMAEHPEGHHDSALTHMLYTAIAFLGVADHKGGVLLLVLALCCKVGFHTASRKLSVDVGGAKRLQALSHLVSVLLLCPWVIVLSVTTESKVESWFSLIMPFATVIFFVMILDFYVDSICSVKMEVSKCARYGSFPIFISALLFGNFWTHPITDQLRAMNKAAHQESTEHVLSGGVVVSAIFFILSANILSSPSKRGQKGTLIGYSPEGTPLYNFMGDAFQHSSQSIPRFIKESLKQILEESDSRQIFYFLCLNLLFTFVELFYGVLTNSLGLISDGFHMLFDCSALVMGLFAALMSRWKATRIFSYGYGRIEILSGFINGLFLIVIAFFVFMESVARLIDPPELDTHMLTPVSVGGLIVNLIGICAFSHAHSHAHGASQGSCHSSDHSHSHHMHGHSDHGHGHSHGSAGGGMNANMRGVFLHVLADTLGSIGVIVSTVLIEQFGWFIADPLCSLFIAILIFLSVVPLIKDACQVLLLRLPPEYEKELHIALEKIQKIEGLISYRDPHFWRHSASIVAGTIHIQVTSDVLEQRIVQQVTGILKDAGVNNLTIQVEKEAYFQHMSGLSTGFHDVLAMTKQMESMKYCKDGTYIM
UniProt P16260: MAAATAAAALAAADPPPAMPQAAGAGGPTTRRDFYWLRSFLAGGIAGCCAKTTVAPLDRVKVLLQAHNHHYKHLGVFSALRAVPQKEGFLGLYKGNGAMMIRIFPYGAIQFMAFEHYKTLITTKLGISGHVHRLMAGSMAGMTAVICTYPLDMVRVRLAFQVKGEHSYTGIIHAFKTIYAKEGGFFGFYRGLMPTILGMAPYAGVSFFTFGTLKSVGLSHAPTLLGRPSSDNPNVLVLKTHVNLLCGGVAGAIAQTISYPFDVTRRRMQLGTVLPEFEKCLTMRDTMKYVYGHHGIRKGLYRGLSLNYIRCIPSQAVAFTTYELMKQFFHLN
UniProt L0R6Q1: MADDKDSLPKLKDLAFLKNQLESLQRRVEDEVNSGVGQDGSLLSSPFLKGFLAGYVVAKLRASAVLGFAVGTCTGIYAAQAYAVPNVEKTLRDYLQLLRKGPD
UniProt Q96QD8: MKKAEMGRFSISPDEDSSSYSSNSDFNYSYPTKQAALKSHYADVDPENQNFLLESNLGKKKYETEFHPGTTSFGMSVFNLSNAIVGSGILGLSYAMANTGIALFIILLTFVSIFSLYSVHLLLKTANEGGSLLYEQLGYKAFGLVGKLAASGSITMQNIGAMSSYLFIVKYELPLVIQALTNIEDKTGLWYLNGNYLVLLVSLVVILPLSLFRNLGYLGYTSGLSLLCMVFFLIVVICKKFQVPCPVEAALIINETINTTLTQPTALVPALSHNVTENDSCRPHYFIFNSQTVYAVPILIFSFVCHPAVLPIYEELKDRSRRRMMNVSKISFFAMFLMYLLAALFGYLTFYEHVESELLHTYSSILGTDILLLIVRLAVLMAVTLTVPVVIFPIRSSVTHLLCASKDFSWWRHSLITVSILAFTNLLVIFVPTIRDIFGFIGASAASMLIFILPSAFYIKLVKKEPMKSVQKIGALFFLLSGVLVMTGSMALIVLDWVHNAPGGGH
UniProt Q9NVC3: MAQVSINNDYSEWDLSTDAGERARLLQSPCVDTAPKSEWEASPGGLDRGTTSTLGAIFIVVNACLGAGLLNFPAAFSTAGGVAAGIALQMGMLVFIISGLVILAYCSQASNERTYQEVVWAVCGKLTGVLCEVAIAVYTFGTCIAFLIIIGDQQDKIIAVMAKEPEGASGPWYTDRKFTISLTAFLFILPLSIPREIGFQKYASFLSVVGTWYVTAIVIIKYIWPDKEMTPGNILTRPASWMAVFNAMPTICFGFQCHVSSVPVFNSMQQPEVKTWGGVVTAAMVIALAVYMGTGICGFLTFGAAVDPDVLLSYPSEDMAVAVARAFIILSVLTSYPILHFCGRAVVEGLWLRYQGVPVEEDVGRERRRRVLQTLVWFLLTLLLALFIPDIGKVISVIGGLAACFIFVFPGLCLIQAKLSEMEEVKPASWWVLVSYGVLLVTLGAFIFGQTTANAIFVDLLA
UniProt Q96AG3: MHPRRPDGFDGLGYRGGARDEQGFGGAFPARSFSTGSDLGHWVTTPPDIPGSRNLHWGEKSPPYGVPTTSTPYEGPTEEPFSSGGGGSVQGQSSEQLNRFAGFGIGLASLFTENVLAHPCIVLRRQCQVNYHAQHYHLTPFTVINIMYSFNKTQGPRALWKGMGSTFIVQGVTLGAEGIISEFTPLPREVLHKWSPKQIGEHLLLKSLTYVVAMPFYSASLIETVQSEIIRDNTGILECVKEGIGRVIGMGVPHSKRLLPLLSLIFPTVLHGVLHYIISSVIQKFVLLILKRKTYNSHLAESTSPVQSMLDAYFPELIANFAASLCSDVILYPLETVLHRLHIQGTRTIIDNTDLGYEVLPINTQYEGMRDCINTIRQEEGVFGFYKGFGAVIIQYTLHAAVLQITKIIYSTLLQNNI
UniProt O75387: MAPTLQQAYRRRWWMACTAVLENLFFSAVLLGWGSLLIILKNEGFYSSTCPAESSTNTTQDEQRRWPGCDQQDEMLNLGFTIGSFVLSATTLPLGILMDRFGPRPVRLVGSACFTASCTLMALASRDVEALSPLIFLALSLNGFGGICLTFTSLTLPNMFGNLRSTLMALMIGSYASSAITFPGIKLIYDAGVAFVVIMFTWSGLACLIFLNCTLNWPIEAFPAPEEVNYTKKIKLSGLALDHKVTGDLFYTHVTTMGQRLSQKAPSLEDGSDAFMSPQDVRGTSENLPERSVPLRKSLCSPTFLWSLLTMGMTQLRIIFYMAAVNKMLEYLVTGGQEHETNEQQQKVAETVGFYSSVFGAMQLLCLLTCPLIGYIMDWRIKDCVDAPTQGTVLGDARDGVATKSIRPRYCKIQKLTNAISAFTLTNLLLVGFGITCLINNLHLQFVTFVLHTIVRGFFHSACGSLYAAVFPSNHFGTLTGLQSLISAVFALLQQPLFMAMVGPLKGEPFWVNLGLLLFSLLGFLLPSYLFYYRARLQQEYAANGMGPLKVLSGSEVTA
UniProt Q9NYZ2: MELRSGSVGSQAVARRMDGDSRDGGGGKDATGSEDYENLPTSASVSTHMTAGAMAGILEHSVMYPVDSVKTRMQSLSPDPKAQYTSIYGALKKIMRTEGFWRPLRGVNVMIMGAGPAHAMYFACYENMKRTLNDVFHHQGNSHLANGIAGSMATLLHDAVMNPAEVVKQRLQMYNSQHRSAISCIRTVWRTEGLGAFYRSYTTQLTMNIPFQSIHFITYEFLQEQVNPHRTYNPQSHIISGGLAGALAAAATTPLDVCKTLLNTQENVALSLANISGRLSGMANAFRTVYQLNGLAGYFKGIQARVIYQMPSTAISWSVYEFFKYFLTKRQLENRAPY
UniProt P04920: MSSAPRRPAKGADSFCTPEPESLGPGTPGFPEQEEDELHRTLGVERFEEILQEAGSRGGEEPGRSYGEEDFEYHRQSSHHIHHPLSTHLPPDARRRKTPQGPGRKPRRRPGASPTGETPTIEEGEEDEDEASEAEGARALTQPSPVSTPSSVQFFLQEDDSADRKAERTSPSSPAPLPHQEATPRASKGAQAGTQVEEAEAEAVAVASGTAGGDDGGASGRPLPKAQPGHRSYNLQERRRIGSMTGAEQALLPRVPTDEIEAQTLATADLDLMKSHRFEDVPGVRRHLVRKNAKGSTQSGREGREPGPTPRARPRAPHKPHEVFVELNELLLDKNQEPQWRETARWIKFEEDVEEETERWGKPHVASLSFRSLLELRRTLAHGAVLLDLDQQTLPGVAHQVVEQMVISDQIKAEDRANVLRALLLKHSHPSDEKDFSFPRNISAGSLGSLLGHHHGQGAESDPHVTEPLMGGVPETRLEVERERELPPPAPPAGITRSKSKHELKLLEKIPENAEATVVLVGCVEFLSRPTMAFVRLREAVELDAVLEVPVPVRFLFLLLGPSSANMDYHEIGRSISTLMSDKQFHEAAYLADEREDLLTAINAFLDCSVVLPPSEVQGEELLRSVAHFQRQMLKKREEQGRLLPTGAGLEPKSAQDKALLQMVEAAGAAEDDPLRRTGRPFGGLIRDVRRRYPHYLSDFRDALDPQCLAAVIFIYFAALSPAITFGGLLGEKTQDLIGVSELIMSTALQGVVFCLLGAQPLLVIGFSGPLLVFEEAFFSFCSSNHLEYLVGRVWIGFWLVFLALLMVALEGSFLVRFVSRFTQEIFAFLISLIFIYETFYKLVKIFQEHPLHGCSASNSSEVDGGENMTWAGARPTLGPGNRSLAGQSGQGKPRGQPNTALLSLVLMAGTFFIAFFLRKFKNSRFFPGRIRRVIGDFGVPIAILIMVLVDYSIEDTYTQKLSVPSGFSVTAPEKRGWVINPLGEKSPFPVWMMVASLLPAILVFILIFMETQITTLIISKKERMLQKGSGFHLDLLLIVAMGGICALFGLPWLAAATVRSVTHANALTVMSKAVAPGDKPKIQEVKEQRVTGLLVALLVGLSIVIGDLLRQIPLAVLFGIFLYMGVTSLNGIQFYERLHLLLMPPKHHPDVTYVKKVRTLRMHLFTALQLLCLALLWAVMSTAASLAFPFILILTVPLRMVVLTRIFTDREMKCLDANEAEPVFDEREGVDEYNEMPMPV
UniProt Q8N357: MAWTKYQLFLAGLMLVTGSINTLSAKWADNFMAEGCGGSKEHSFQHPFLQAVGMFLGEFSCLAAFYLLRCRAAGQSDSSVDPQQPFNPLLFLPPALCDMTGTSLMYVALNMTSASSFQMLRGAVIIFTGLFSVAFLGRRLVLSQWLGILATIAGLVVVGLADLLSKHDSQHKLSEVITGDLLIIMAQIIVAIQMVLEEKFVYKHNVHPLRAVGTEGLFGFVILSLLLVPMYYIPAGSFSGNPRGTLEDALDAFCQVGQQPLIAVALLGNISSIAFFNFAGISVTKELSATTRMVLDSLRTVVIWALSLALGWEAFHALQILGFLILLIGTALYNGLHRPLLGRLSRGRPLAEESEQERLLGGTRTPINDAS
UniProt Q96EP9: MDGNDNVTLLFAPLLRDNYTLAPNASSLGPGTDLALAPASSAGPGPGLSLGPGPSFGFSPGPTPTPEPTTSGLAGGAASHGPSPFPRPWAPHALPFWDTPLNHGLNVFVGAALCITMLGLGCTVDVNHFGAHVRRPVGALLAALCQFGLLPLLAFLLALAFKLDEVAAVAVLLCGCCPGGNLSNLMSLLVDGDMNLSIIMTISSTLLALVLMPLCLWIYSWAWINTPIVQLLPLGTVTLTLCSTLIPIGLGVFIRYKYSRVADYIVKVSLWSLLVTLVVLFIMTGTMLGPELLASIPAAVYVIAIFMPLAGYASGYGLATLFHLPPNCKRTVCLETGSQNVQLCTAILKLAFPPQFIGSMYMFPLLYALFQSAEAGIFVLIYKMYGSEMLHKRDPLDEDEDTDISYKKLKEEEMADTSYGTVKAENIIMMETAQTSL
UniProt Q8NBW4: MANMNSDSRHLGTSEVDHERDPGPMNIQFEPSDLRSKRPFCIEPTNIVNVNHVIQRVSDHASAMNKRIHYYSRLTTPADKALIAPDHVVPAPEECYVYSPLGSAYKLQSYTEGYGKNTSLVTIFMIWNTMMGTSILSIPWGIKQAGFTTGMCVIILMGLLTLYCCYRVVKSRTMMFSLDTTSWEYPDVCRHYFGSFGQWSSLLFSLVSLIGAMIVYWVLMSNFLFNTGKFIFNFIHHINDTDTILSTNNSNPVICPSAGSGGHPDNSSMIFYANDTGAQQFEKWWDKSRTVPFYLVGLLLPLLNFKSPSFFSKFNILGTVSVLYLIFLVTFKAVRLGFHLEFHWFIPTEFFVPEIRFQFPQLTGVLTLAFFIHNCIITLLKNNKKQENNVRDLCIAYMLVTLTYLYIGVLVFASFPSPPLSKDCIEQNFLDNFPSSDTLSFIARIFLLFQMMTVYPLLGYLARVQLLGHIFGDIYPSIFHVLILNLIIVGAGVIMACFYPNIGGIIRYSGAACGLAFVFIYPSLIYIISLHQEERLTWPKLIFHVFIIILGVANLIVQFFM

compound: C1CN(CCC1(CC2=CC=C(C=C2)Cl)N)C3=NC=NC4=C3C=CN4; test: log2 fold change, soluble protein after heating vs DMSO (PISA); higher = thermal stabilisation; K562 cells, 10 uM, 30 min; active = over 0.2 and 3.5 SD of the protein, either way, in both replicates (recomputed)
In short: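 Quantification of soluble protein used TMTpro 16plex LC-MS/MS, with channel sums equalised. Samples were the supernatant after 21,000xg for 90 min of pooled aliquots from K562 cells (2×10^6 cells/mL) treated with 10 μM compound for 30 min, heated for 3 min over 48°C-58°C, and extracted in PBS with 0.5% NP-40 at 4°C. Values, from duplicates, describe thermal stability against control samples on a log2 fold-change scale.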

log2 fold change, inactive:
SLC12A4 (UniProt Q9UP95) 0.1
SLC25A20 (UniProt O43772) 0.027
SLC18B1 (UniProt Q6NT16) 0.081
SLC31A1 (UniProt O15431) 0.023
SLC2A3 (UniProt P11169) 0.056
SLC4A1AP (UniProt Q9BWU0) -0.013
SLC40A1 (UniProt Q9NP59) -0.165
SLC38A1 (UniProt Q9H2H9) 0.092
SLC30A5 (UniProt Q8TAD4) 0.033
SLC25A16 (UniProt P16260) 0.11
SLC35A4 (UniProt L0R6Q1) 0.026
SLC25A4 (UniProt P12235) 0.021
SLC39A6 (UniProt Q13433) 0.124
SLC25A51 (UniProt Q9H1U9) -0.003
SLC38A2 (UniProt Q96QD8) 0.048
SLC38A7 (UniProt Q9NVC3) 0.097
SLC25A46 (UniProt Q96AG3) 0.004
SLC5A6 (UniProt Q9Y289) 0.093
SLC20A1 (UniProt Q8WUM9) 0.044
SLC43A1 (UniProt O75387) 0.05
SLC1A3 (UniProt P43003) 0.163
SLC30A6 isoform 2 (UniProt Q6NXT4) 0.029
SLC25A37 (UniProt Q9NYZ2) 0.052
SLC7A1 (UniProt P30825) 0.063
SLC2A1 (UniProt P11166) 0.076
SLC3A2 isoform 3 (UniProt P08195) 0.074
SLC33A1 (UniProt O00400) 0.093
SLC3A2 (UniProt F5GZS6) 0.059
SLC44A2 isoform 2 (UniProt Q8IWA5) 0.01
SLC4A2 (UniProt P04920) 0.002
SLC35F6 (UniProt Q8N357) 0.122
SLC37A4 isoform 2 (UniProt O43826) 0.053
SLC10A4 (UniProt Q96EP9) -0.176
SLC25A1 (UniProt P53007) 0.083
SLBP (UniProt Q14493) -0.039
SLC38A9 (UniProt Q8NBW4) 0.055

2 entries picked at random from the list so far, as already listed:
log2 fold change, inactive:
SLC10A4 (UniProt Q96EP9) -0.176
SLC30A5 (UniProt Q8TAD4) 0.033
